Results published in article PMC6066219 (PLoS ONE, 2018).
Starred links: 1 amine or outer side, 2 acyl side, 3 side chain; linkers in the order of their positions; H or OH if unused. Positions of bridges follow the written chain, without caps; N, C: chain ends. Non-standard residues stand in square brackets, D forms with d. Chains are numbered I, II in the order given. *: point of attachment. X2 = CC(=O)NC1CCCN(O)C(=O)C=C(C)CCOC(=O)C(NC(=O)CCN2C(=O)CC([*:1])C2=O)CCCN(O)C(=O)C=C(C)CCOC(=O)C(NC(=O)CCN2C(=O)CC([*:2])C2=O)CCCN(O)C(=O)C=C(C)CCOC1=O; X3 = CC(=O)NC1CCCN(O)C(=O)C=C(C)CCOC(=O)C(NC(=O)CCN2C(=O)CC(*)C2=O)CCCN(O)C(=O)C=C(C)CCOC(=O)C(NC(C)=O)CCCN(O)C(=O)C=C(C)CCOC1=O; Nle = CCCC[C@H](N)C(=O)O; Mpa = O=C(O)CCS

Assay: general procedure: Fmoc solid-phase peptide synthesis; rink amide MBHA resin (100–200 mesh); HATU/HOAt
Conditions: for isolated mass / isolated yield: whole synthesis; for isolated yield: scale of the general procedure 62.5 μmol; for conjugation yield: conjugation step

Row | Substance | isolated mass [mg] | isolated yield [%] | conjugation yield [%]
1 | 3-MP^0-[D-Glu^1,desGlu^2-6]-Ala-Tyr-Gly-Trp-Met-Asp-Phe-NH2 | 37.6 | 54 | –
2 | 3-MP^0-[D-Glu^1,desGlu^2-6]-Ala-Tyr-Gly-Trp-Nle-Asp-Phe-NH2 | 32.1 | 47 | –
3 | I: [Mpa][dE]AYGW[Nle]DF-NH2 / II: [Mpa][dE]AYGW[Nle]DF-NH2 (linker I:1-II:1 via X2; SMILES CCCC[C@H](NC(=O)[C@H](Cc1c[nH]c2ccccc12)NC(=O)CNC(=O)[C@H](Cc1ccc(O)cc1)NC(=O)[C@H](C)NC(=O)[C@@H](CCC(=O)O)NC(=O)CCSC1CC(=O)N(CCC(=O)NC2CCCN(O)C(=O)C=C(C)CCOC(=O)C(NC(=O)CCN3C(=O)CC(SCCC(=O)N[C@H](CCC(=O)O)C(=O)N[C@@H](C)C(=O)N[C@@H](Cc4ccc(O)cc4)C(=O)NCC(=O)N[C@@H](Cc4c[nH]c5ccccc45)C(=O)N[C@@H](CCCC)C(=O)N[C@@H](CC(=O)O)C(=O)N[C@@H](Cc4ccccc4)C(N)=O)C3=O)CCCN(O)C(=O)C=C(C)CCOC(=O)C(NC(C)=O)CCCN(O)C(=O)C=C(C)CCOC2=O)C1=O)C(=O)N[C@@H](CC(=O)O)C(=O)N[C@@H](Cc1ccccc1)C(N)=O) | – | – | 79
4 | [Mpa](X3)[dE]AYGW[Nle]DF-NH2 (SMILES CCCC[C@H](NC(=O)[C@H](Cc1c[nH]c2ccccc12)NC(=O)CNC(=O)[C@H](Cc1ccc(O)cc1)NC(=O)[C@H](C)NC(=O)[C@@H](CCC(=O)O)NC(=O)CCSC1CC(=O)N(CCC(=O)NC2CCCN(O)C(=O)C=C(C)CCOC(=O)C(NC(C)=O)CCCN(O)C(=O)C=C(C)CCOC(=O)C(NC(C)=O)CCCN(O)C(=O)C=C(C)CCOC2=O)C1=O)C(=O)N[C@@H](CC(=O)O)C(=O)N[C@@H](Cc1ccccc1)C(N)=O) | – | – | 70
